Experimental data: PubChem BioAssay AID1159578 (Peter MacCallum Cancer Centre, 2015)
Assay: 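Knock-downs that alter how fast lymphatic endothelial cells migrate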 (primary screen). Cell system: human lymphatic endothelial cells. Knock-down reagent: siRNA pool against human genes, 40 nM. Timing: 48 h after transfection. Detection: 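Cells stained with dye and imaged after a scratch; covered wound area and nuclei counted, duplicates averaged, migration set against mock wells and turned into a robust z-score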. Direction: migration robust z-score: higher = faster migration into the scratch; nuclei per well: higher = more cells in the well. Rule for the call: 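Pools averaging fewer than 3300 nuclei are never called; remaining pools count as changed when migration robust z lies outside -2 to 2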. Calls: active = migration changed; inactive = no migration change, or too few cells.
Shown is one part, drawn at random, of about 18,000 reagents. About 1,030 of them (5.7%) count as active. 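Inactive calls also include pools with fewer than 3300 nuclei, whose migration was not assessed.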 Raw values are not corrected between plates. Entries without a mark were called inactive. Further read-outs or replicates are left out here. Reagent sequences are not shown.

Gene | migration robust z-score | migration class with cell-count check | nuclei per well, duplicate mean
ROPN1 (GeneID 54763) | -0.82 | migration z between -2 and 2; enough cells | 5627
PPP1R3D (GeneID 5509) | -1.87 | migration z between -2 and 2; enough cells | 5694
KNOP1 (GeneID 400506) | 2.41 (active) | migration z above 2; enough cells | 5912
GSTM1 (GeneID 2944) | -0.62 | migration z between -2 and 2; enough cells | 5881
SART3 (GeneID 9733) | 0.55 | migration z between -2 and 2; enough cells | 4957
TSPYL6 (GeneID 388951) | 0.99 | migration z between -2 and 2; enough cells | 6370
ASB16 (GeneID 92591) | -7.27 | under 3300 nuclei; migration not judged | 1626
LGR6 (GeneID 59352) | -0.03 | migration z between -2 and 2; enough cells | 5848
RPS7 (GeneID 6201) | -2.62 | under 3300 nuclei; migration not judged | 3234
ALDH6A1 (GeneID 4329) | 0.72 | migration z between -2 and 2; enough cells | 6930
ZFP36 (GeneID 7538) | -0.62 | migration z between -2 and 2; enough cells | 4292
TGIF2 (GeneID 60436) | 0.34 | migration z between -2 and 2; enough cells | 4862
MYLK4 (GeneID 340156) | 0.8 | migration z between -2 and 2; enough cells | 5142
BRDT (GeneID 676) | -0.28 | migration z between -2 and 2; enough cells | 6562
CCNE1 (GeneID 898) | -1.38 | migration z between -2 and 2; enough cells | 5236
AJUBA (GeneID 84962) | -0.6 | migration z between -2 and 2; enough cells | 6246
CITED4 (GeneID 163732) | 1.12 | migration z between -2 and 2; enough cells | 5291
SLIT1 (GeneID 6585) | 0.17 | migration z between -2 and 2; enough cells | 5143
ABCG4 (GeneID 64137) | -1.64 | migration z between -2 and 2; enough cells | 6664
LOC642219 (retired record) (GeneID 642219) | 0.05 | migration z between -2 and 2; enough cells | 5940
FH (GeneID 2271) | 0.06 | migration z between -2 and 2; enough cells | 7622
MAP1S (GeneID 55201) | -1.46 | under 3300 nuclei; migration not judged | 2981
LHFPL5 (GeneID 222662) | -1.56 | migration z between -2 and 2; enough cells | 5976
TNFRSF13B (GeneID 23495) | -4.21 | under 3300 nuclei; migration not judged | 2509
ZC3H12B (GeneID 340554) | 0 | migration z between -2 and 2; enough cells | 6768
ZNF100 (GeneID 163227) | 0.8 | migration z between -2 and 2; enough cells | 6523

Active calls, among the entries above:
Gene | migration robust z-score | migration class with cell-count check | nuclei per well, duplicate mean
KNOP1 (GeneID 400506) | 2.41 (active) | migration z above 2; enough cells | 5912

The list goes on.
Gene | migration robust z-score | migration class with cell-count check | nuclei per well, duplicate mean
PTPMT1 (GeneID 114971) | -0.42 | migration z between -2 and 2; enough cells | 6425
AP3M1 (GeneID 26985) | 1.81 | migration z between -2 and 2; enough cells | 5690
ZNF354B (GeneID 117608) | 0.78 | migration z between -2 and 2; enough cells | 4359
TIPIN (GeneID 54962) | -0.18 | migration z between -2 and 2; enough cells | 6269
HSPB9 (GeneID 94086) | -0.4 | migration z between -2 and 2; enough cells | 4464
LAMP5 (GeneID 24141) | -0.02 | migration z between -2 and 2; enough cells | 5964
EPPIN (GeneID 57119) | 0.96 | migration z between -2 and 2; enough cells | 5915
SHCBP1 (GeneID 79801) | -0.33 | migration z between -2 and 2; enough cells | 6338
TSHB (GeneID 7252) | -1.78 | migration z between -2 and 2; enough cells | 5978
GTF3C2 (GeneID 2976) | -1.79 | migration z between -2 and 2; enough cells | 5083
PRPF19 (GeneID 27339) | -1.17 | migration z between -2 and 2; enough cells | 6486
HPCAL4 (GeneID 51440) | -0.94 | under 3300 nuclei; migration not judged | 3149
ACOXL (GeneID 55289) | -0.57 | migration z between -2 and 2; enough cells | 4980
PTRH1 (GeneID 138428) | 1.17 | migration z between -2 and 2; enough cells | 6329
P4HTM (GeneID 54681) | -0.44 | migration z between -2 and 2; enough cells | 6286
GTF2IRD2 (GeneID 84163) | -0.51 | migration z between -2 and 2; enough cells | 6024
CCDC125 (GeneID 202243) | -1.19 | migration z between -2 and 2; enough cells | 5458
NHLH2 (GeneID 4808) | -0.95 | migration z between -2 and 2; enough cells | 5179
DNAJC25 (GeneID 548645) | -0.18 | migration z between -2 and 2; enough cells | 5768
FAXDC2 (GeneID 10826) | 0.52 | migration z between -2 and 2; enough cells | 5584
SAMSN1 (GeneID 64092) | 0.44 | migration z between -2 and 2; enough cells | 5590
FASTK (GeneID 10922) | -1.01 | migration z between -2 and 2; enough cells | 4650
SCTR (GeneID 6344) | -0.32 | under 3300 nuclei; migration not judged | 3130
ARHGEF2 (GeneID 9181) | -0.65 | migration z between -2 and 2; enough cells | 3822
THNSL2 (GeneID 55258) | 1.19 | migration z between -2 and 2; enough cells | 5322
WDR5B (GeneID 54554) | -0.46 | migration z between -2 and 2; enough cells | 5091
XPO4 (GeneID 64328) | -0.08 | migration z between -2 and 2; enough cells | 4818
RUNDC3B (GeneID 154661) | 0.15 | migration z between -2 and 2; enough cells | 5792
GIMAP2 (GeneID 26157) | 1.21 | migration z between -2 and 2; enough cells | 5713
C3orf52 (GeneID 79669) | -0.08 | migration z between -2 and 2; enough cells | 5706
NEU1 (GeneID 4758) | -0.08 | migration z between -2 and 2; enough cells | 5646
BPIFC (GeneID 254240) | 0.25 | migration z between -2 and 2; enough cells | 5292
ETV6 (GeneID 2120) | 0.73 | migration z between -2 and 2; enough cells | 4608
ABHD16B (GeneID 140701) | -2.05 (active) | migration z below -2; enough cells | 3798
INTU (GeneID 27152) | -0.2 | migration z between -2 and 2; enough cells | 6241
MYRIP (GeneID 25924) | -1.05 | migration z between -2 and 2; enough cells | 3864
FOXI1 (GeneID 2299) | -0.62 | migration z between -2 and 2; enough cells | 5530
SLITRK1 (GeneID 114798) | -2.54 (active) | migration z below -2; enough cells | 4078
MROH5 (GeneID 389690) | -1.2 | migration z between -2 and 2; enough cells | 5912
GSK3B (GeneID 2932) | 0.78 | migration z between -2 and 2; enough cells | 6302
CFL2 (GeneID 1073) | -1.23 | migration z between -2 and 2; enough cells | 5020
RHEX (GeneID 440712) | -0.76 | migration z between -2 and 2; enough cells | 5285
TTC3 (GeneID 7267) | -0.11 | migration z between -2 and 2; enough cells | 5319
GPAM (GeneID 57678) | -1.09 | migration z between -2 and 2; enough cells | 4048
MLIP (GeneID 90523) | -0.52 | migration z between -2 and 2; enough cells | 4704
CACUL1 (GeneID 143384) | 0.83 | migration z between -2 and 2; enough cells | 5472
SYT15 (GeneID 83849) | -0.64 | migration z between -2 and 2; enough cells | 4822
